According to patent US20210401931A1, “METHODS AND MATERIALS FOR TREATING CANCER” (Mayo Foundation for Medical Education and Research, priority 2018, published 2021):
For at least one compound, name, drawing or mass did not settle the structure.

System: PD-L1 mRNA
Test: PD-L1 mRNA expression by RT-qPCR in PC-3 cells treated with chemicals
Assay type: cell-based, human
Details: 24 hours
Protocol: FIGS. 1A-K. RB suppresses PD-L1 mRNA expression. (A) PC-3 cell were treated with indicated chemicals for 24 hours. Cells were harvested for RT-qPCR. All data were shown as mean values±SD (n=3). * P<0.05, ** P<0.01, *** P<0.001. (B) PC-3 cells were infected with lentivirus expressing control or CDK4 and CDK6-specific shRNAS. 72 hours after infection, cells were harvested for RT-qPCR. All data were shown as mean values±SD (n=3). *** P<0.001. (C-F) PC-3 cells were infected with lentivirus expressing control or RB1-specific shRNAs. 48 hours after infection, PD-L1 protein levels were determined by western blotting (C), RT-qPCR (D), FACS (E), and IFC (F). All data were shown as mean values±SD (n=3). * P<0.05, ** P<0.01, *** P<0.001. (G) PD-L1 mRNA levels were determined by RT-qPCR in SKO and DKO mouse prostate tumor cells. […] (K) The putative copy-number calls for RB1 were determined using GISTC 2.0, and the mRNA expression for CD274(PD-L1) was measured by log 2(RPKM), here RPKM stands for Reads Per Kilobase of transcript per Million mapped reads. […]
Total RNA was isolated using TRIzol reagent (Thermo Fisher Scientific). […] Quantitative real-time PCR was performed by mixing cDNA, gene-specific primers, and IQ SYRB Green Supermix and detected by iCycler QTX detection system (Bio-Rad). The 2-ΔCt method was used to quantitate fold changes by normalizing to GAPDH. […]

In the case of CC(=O)c1c(C)c2cnc(Nc3ccc(N4CCNCC4)cn3)nc2n(C2CCCC2)c1=O [palbociclib, Palbociclib], the “PD-L1 mRNA expression” value is reported as “significantly increased”.
